According to PubChem BioAssay (Tox21):
Only results without a clear call are listed here; the source files them as inconclusive. Calls come from the whole dose curve; as a rule, active = well fitted cell-killing curve with a large enough effect in the repeat runs; inconclusive = weak or mixed curves, or effect the other way; inactive = flat fitted curve, though single readings scatter.

Assay: cAMP Responsive Elements (CRE) small molecule agonists, cell-based qHTS assay: qHTS cell viability counter screen (AID 2060914);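 note: viability read after 3 h of compound exposure; nearly all actives have a fitted effect of over 50% in size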
Details: CRE-bla HEK293T viability, CellTiter-Glo luminescence, 5 h
From the text: National Center for Advancing Translational Sciences [NCATS]
Division of Preclinical Innovation [DPI]
U.S. Environmental Protection Agency [EPA]
National Institutes of Environmental Health Sciences [NIEHS]
National Toxicology Program [NTP]
U.S. Food and Drug Administration [FDA]
CREB (cyclic-AMP Responsive Element Binding Protein) is a cellular transcription factor. It binds to certain DNA sequences called cAMP Responsive Elements (CRE) and regulates the transcription of the genes. […] This cell line can be used to find agonists/antagonists of the cyclic AMP signaling pathway. The activation of the report gene under culture conditions can be detected by fluorescence intensity. This cell line has been used to screen the Tox21 10K compound library to identify agonists that induce oxidative stress. The cytotoxicity of the Tox21 compound library against the CRE-bla cell line was tested in parallel by measuring the cell viability using CellTiter-Glo assay (Promega, Madison, WI) in the same wells.
Tox21 Assay Protocol Summary:
CRE-bla Hek 293T cells were suspended in assay medium (DMEM containing 10% dialyzed FBS, 0.1 mM NEAA, 1 mM sodium pyruvate and 25 mM HEPES) and dispensed at 2,000 cells/5 uL /well into 1536-well black wall/clear bottom plates using a Multidrop Combi (ThermoFisher Scientific, Waltham, MA) dispenser. After the assay plates were incubated at 37 C/5% CO2 for 18 hrs, 23 nL of compounds dissolved in DMSO, positive controls or DMSO only was transferred to the assay plate by a pintool workstation (Kalypsys, San Diego, CA). After the plates were incubated at 37 C/5% CO2 for 3 hrs, 1 uL of LiveBLAzer B/G FRET substrate (Invitrogen, Carlsbad, CA) was added to each well using Bioraptr Flying Reagent Dispenser (FRD, Aurora Discovery, San Diego, CA). The plates were incubated at room temperature for 2 h, then fluorescence intensities were measured using an Envision plate reader (PerkinElmer, Shelton, CT) at Excitation 405nm, Emission 460nm and 530nm. The % activity was determined from the ratio of 460nm/530nm. For cell viability readout that measures cytotoxicity, 4 uL /well of CellTiter-Glo reagent was added into the assay plates using Bioraptr FRD. After 30 min incubation at room temperature, the luminescence intensity in the assay plates was measured using a ViewLux (PerkinElmer, Shelton, CT) plate reader.
Potency is the fitted concentration of half-maximal effect.

Structure (SMILES)	Potency
Cc1ccc([N+](=O)[O-])c([N+](=O)[O-])c1	inconclusive: 77 µM
Cc1cccc([N+](=O)[O-])c1[N+](=O)[O-]	inconclusive: 0.0012 µM
O=[N+]([O-])c1cccc([N+](=O)[O-])c1	inconclusive: 1.43 µM
[NH4+].[O-][Cl+3]([O-])([O-])[O-]	inconclusive: 61.8 µM
